No constants are given. Whether binding was seen depends on the method and setting. In cells and extracts the contact can be indirect. Binding calls can cover weak binding; strength is not graded here.
Columns and labels:
[1] = target: Importin B1 (KPNB1) (human (endogenous in HEK293)) (UniProt Q14974); assay: co-IP
[2] = target: Flag-tagged full length CTSL (human cathepsin L) (human) (UniProt P07711); assay: co-IP

Protein sequences, listed by entry. Tags and fused reporters are not part of them. Lines headed by an entry give the natural chain unless they say otherwise; changes in a name come on top.
UniProt Q14974: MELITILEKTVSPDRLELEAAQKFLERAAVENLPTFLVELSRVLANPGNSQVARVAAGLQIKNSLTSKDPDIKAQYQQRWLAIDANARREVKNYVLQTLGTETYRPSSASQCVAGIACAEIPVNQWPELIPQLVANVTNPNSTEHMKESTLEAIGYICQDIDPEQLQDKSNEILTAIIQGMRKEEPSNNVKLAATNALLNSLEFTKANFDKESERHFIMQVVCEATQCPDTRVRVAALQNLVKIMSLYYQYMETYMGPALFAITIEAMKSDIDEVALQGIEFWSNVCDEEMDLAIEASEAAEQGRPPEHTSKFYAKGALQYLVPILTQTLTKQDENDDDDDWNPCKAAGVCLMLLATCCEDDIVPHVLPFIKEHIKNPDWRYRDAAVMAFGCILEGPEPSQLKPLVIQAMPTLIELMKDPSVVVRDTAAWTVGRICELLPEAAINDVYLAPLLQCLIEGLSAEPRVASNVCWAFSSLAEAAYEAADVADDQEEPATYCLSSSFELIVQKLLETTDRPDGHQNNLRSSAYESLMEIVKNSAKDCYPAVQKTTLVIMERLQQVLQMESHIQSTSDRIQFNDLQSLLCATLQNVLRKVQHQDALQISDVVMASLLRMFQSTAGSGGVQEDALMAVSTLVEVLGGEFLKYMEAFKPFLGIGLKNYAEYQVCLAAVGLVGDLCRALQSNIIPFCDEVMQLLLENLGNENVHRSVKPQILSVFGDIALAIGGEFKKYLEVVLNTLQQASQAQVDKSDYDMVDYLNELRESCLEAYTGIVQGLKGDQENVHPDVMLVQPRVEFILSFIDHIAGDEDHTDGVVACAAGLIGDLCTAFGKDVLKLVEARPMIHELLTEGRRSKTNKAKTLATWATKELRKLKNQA
UniProt P07711: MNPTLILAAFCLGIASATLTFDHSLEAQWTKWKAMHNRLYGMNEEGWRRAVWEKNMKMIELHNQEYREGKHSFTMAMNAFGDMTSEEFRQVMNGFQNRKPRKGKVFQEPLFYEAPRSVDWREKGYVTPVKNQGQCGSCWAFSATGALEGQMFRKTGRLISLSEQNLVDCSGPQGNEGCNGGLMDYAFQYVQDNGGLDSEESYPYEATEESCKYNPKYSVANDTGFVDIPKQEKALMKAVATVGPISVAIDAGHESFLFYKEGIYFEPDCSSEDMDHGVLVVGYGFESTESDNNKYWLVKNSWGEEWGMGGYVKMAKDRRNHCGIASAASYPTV
UniProt P52294: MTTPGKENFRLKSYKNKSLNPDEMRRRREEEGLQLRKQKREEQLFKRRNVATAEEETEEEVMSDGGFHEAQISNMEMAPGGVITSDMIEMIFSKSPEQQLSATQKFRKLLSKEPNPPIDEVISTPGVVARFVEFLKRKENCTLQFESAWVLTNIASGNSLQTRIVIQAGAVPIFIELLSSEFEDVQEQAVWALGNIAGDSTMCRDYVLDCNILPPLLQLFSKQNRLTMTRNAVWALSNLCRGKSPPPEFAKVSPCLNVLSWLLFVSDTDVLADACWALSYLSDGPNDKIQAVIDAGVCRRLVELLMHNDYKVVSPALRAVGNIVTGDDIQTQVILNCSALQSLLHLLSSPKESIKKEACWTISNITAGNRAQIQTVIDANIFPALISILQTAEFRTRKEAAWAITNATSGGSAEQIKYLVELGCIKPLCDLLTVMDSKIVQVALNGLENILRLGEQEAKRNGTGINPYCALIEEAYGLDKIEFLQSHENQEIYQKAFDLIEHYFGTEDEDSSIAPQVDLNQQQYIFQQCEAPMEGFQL

| binding [1] | binding [2] | Substance |
| --- | --- | --- |
| binds |  | Flag-tagged full length CTSL (human cathepsin L) (from UniProt P07711) |
|  | binds | Importin B1 (KPNB1) (from UniProt Q14974 1-876) |
|  | no binding | KPNA1 (from UniProt P52294 1-538) |

From publication doi:10.1101/2025.01.09.632284
